From PMC8027484
These are yes or no findings as the source states them, for the method shown. Binding seen in cells or lysates may run through a third protein. A yes stands for co-enrichment or nearness to the bait. Other partners may have been found. Where a sequence is shown, tags or fusion partners need not be part of it. Blank lines part the entries; values can stand above or below the molecule they belong to.

The chains behind the UniProt entries cited, without tags or fusion partners.
UniProt Q14240: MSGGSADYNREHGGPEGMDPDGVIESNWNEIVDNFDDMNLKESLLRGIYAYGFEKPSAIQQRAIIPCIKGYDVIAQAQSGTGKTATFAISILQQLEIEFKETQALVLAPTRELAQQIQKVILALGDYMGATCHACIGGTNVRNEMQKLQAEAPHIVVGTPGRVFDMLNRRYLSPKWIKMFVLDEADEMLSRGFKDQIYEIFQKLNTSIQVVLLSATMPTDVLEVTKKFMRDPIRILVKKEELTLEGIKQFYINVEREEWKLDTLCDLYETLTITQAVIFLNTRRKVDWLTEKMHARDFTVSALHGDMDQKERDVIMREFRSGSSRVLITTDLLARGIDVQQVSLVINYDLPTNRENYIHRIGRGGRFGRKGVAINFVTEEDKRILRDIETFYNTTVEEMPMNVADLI
UniProt P30613: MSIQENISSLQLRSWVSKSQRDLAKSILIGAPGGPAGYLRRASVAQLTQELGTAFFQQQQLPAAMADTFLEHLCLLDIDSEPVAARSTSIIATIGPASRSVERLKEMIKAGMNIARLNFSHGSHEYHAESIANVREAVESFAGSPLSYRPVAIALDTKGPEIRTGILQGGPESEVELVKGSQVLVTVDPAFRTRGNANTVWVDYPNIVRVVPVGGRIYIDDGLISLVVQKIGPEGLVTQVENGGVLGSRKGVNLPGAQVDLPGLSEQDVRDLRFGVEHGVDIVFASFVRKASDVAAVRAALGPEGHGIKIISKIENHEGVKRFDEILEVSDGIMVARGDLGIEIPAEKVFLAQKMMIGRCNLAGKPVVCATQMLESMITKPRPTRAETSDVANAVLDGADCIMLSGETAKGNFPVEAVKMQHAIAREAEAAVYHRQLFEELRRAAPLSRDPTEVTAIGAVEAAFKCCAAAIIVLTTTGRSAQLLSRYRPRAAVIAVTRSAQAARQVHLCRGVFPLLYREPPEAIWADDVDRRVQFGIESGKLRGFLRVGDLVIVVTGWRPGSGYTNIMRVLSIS
UniProt Q96F07: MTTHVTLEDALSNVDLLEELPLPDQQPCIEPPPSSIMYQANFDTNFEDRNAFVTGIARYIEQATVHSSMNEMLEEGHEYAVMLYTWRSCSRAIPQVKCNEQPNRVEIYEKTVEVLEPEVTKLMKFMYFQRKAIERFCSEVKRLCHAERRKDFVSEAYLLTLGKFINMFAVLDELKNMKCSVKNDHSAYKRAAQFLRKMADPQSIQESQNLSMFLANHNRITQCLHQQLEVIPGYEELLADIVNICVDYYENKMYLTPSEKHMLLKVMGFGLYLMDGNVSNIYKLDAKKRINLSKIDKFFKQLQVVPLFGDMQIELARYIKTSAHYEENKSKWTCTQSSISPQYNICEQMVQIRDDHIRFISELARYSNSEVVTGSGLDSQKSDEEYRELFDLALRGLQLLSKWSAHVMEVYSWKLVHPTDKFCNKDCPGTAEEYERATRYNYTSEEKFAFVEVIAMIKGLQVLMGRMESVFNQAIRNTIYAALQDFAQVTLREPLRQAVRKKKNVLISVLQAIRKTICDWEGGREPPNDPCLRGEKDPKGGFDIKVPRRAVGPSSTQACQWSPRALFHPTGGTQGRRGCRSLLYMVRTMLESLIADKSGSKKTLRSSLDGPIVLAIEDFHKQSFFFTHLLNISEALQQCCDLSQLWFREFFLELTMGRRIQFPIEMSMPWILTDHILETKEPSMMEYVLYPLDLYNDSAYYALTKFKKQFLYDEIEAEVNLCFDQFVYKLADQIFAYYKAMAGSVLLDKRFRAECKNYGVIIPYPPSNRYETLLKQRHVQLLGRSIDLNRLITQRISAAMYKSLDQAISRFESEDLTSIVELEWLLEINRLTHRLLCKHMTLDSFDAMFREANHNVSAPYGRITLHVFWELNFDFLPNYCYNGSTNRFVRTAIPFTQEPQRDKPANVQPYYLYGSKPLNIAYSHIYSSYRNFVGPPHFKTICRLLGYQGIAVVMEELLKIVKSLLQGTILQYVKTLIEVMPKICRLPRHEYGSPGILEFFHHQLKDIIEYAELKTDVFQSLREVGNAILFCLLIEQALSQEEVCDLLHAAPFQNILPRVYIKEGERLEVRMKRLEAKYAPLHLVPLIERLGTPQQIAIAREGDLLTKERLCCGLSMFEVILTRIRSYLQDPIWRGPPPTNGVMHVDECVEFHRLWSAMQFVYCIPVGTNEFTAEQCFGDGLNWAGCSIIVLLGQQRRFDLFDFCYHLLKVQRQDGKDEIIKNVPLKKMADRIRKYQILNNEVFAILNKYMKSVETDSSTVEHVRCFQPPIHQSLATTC
UniProt P47756: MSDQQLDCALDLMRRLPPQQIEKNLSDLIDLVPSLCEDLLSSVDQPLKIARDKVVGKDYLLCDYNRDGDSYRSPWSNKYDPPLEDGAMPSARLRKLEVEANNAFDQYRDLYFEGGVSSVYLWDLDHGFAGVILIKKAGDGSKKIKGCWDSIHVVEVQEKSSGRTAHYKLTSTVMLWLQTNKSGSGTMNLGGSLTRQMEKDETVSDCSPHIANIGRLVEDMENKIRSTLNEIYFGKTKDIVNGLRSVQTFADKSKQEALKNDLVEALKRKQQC
UniProt P55060: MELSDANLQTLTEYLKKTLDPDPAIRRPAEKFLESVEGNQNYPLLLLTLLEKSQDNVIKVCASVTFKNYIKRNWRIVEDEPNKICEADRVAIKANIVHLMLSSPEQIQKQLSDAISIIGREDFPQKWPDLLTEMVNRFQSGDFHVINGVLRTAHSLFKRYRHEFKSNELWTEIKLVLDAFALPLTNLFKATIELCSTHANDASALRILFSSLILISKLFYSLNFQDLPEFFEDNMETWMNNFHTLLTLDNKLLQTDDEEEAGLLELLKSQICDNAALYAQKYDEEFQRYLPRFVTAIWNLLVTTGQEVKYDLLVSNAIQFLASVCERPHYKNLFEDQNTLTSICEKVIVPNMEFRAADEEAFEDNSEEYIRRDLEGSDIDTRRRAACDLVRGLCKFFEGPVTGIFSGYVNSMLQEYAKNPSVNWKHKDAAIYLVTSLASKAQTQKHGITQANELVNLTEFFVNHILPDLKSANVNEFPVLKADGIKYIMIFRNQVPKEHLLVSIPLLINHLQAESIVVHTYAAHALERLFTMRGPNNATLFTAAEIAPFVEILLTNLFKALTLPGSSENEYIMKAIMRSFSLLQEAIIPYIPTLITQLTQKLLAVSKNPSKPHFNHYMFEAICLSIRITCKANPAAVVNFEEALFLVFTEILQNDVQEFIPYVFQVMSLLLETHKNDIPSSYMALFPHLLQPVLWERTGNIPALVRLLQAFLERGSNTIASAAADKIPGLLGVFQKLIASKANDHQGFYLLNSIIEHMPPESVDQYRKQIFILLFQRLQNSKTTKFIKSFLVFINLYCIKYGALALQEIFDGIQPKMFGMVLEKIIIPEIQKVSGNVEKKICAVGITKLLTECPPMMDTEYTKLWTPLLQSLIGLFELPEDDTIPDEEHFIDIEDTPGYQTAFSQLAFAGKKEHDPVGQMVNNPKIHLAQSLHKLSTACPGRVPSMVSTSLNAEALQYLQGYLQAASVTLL
UniProt Q92973: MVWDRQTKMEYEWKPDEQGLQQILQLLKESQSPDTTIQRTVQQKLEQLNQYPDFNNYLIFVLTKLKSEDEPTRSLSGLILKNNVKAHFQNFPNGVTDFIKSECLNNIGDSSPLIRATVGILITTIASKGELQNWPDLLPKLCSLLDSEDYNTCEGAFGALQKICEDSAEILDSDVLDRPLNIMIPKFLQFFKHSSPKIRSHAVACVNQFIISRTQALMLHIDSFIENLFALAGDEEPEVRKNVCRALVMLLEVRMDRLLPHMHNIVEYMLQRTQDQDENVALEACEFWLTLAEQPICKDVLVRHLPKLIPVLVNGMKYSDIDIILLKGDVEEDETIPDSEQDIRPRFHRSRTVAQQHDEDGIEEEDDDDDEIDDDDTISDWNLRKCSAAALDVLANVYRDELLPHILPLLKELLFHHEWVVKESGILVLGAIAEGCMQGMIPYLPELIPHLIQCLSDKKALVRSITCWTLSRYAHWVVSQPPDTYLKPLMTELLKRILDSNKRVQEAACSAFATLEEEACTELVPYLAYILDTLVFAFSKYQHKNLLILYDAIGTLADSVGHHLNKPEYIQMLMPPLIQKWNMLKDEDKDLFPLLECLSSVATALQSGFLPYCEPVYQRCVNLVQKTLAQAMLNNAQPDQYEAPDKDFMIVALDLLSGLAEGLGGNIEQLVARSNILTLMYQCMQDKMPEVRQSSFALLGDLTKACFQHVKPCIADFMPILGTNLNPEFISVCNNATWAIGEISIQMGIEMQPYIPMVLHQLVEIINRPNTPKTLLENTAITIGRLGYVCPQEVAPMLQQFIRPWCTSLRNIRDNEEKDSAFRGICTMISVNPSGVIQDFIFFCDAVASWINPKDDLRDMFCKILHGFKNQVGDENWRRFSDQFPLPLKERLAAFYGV
UniProt P61619: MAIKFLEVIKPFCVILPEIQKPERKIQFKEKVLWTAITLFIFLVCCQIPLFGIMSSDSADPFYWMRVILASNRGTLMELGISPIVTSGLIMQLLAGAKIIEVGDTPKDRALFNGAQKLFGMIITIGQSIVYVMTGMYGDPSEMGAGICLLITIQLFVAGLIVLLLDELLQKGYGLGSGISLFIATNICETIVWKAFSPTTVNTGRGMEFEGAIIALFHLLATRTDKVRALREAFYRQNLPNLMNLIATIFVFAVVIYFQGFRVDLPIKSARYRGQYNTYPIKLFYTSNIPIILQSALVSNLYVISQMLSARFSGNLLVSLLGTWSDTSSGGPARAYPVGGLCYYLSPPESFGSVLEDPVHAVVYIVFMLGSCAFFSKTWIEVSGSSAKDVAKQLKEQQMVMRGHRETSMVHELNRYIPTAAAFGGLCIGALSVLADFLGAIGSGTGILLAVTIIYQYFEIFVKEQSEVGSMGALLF

Target: T1, 3×Flag-tagged-FLVCR1 (feline leukemia virus subgroup C receptor 1) (UniProt Q9Y5Y0)
T1 sequence: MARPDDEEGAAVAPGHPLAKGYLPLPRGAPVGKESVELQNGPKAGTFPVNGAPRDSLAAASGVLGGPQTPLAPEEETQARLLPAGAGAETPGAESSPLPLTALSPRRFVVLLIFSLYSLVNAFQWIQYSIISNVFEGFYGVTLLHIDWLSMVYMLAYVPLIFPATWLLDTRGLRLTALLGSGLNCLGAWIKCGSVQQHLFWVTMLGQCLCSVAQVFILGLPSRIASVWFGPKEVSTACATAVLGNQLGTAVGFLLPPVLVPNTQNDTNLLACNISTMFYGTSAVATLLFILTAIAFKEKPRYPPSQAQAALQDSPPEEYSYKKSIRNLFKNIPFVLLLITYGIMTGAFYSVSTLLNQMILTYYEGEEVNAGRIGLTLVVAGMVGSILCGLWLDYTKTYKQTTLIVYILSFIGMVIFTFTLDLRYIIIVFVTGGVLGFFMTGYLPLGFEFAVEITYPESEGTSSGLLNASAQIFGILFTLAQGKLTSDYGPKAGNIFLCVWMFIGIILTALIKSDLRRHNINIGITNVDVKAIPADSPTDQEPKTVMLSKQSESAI
Test: affinity purification with mass spectrometry; lysates of KYSE-150 cells stably expressing 3×Flag-tagged FLVCR1 (OE) or control (NC); anti-FLAG beads, eluted with 3×FLAG peptide, SDS-PAGE with Coomassie staining, bands digested with trypsin, LC-MS; proteins detected in the OE group

- binding: binds
Molecule: EIF4A2 (from UniProt Q14240 1-407)

- binding: binds
Molecule: PKLR (from UniProt P30613 1-574)

- binding: binds
Molecule: CYFIP2 (from UniProt Q96F07 1-1278)

- binding: binds
Molecule: CAPZB (from UniProt P47756 1-272)

- binding: binds
Molecule: chromosome segregation 1–like (CSE1L) (from UniProt P55060 1-971)

- binding: binds
Molecule: TNPO1 (from UniProt Q92973 1-898)

- binding: binds
Molecule: SEC61A1 (from UniProt P61619 1-476)

- binding: binds
B1: DLD (protein, UniProt P09622 36-509)
chain: ADQPIDADVTVIGSGPGGYVAAIKAAQLGFKTVCIEKNETLGGTCLNVGCIPSKALLNNSHYYHMAHGKDFASRGIEMSEVRLNLDKMMEQKSTAVKALTGGIAHLFKQNKVVHVNGYGKITGKNQVTATKADGGTQVIDTKNILIATGSEVTPFPGITIDEDTIVSSTGALSLKKVPEKMVVIGAGVIGVELGSVWQRLGADVTAVEFLGHVGGVGIDMEISKNFQRILQKQGFKFKLNTKVTGATKKSDGKIDVSIEAASGGKAEVITCDVLLVCIGRRPFTKNLGLEELGIELDPRGRIPVNTRFQTKIPNIYAIGDVVAGPMLAHKAEDEGIICVEGMAGGAVHIDYNCVPSVIYTHPEVAWVGKSEEQLKEEGIEYKVGKFPFAANSRAKTNADTDGMVKILGQKSTDRVLGAHILGPGAGEMVNEAALALEYGASCEDIARVCHAHPTLSEAFREANLAASFGKSINF

- binding: binds
B2: DDX47 (protein, UniProt Q9H0S4 1-455)
chain: MAAPEEHDSPTEASQPIVEEEETKTFKDLGVTDVLCEACDQLGWTKPTKIQIEAIPLALQGRDIIGLAETGSGKTGAFALPILNALLETPQRLFALVLTPTRELAFQISEQFEALGSSIGVQSAVIVGGIDSMSQSLALAKKPHIIIATPGRLIDHLENTKGFNLRALKYLVMDEADRILNMDFETEVDKILKVIPRDRKTFLFSATMTKKVQKLQRAALKNPVKCAVSSKYQTVEKLQQYYIFIPSKFKDTYLVYILNELAGNSFMIFCSTCNNTQRTALLLRNLGFTAIPLHGQMSQSKRLGSLNKFKAKARSILLATDVASRGLDIPHVDVVVNFDIPTHSKDYIHRVGRTARAGRSGKAITFVTQYDVELFQRIEHLIGKKLPGFPTQDDEVMMLTERVAEAQRFARMELREHGEKKKRSREDAGDNDDTEGAIGVRNKVAGGKMKKRKGR

- binding: binds
B3: UTP6 (protein, UniProt Q9NYH9 1-597)
chain: MAEIIQERIEDRLPELEQLERIGLFSHAEIKAIIKKASDLEYKIQRRTLFKEDFINYVQYEINLLELIQRRRTRIGYSFKKDEIENSIVHRVQGVFQRASAKWKDDVQLWLSYVAFCKKWATKTRLSKVFSAMLAIHSNKPALWIMAAKWEMEDRLSSESARQLFLRALRFHPECPKLYKEYFRMELMHAEKLRKEKEEFEKASMDVENPDYSEEILKGELAWIIYKNSVSIIKGAEFHVSLLSIAQLFDFAKDLQKEIYDDLQALHTDDPLTWDYVARRELEIESQTEEQPTTKQAKAVEVGRKEERCCAVYEEAVKTLPTEAMWKCYITFCLERFTKKSNSGFLRGKRLERTMTVFRKAHELKLLSECQYKQLSVSLLCYNFLREALEVAVAGTELFRDSGTMWQLKLQVLIESKSPDIAMLFEEAFVHLKPQVCLPLWISWAEWSEGAKSQEDTEAVFKKALLAVIGADSVTLKNKYLDWAYRSGGYKKARAVFKSLQESRPFSVDFFRKMIQFEKEQESCNMANIREYYERALREFGSADSDLWMDYMKEELNHPLGRPENCGQIYWRAMKMLQGESAEAFVAKHAMHQTGHL

- binding: binds
B4: MDH2 (protein, UniProt P40926 25-338)
chain: AKVAVLGASGGIGQPLSLLLKNSPLVSRLTLYDIAHTPGVAADLSHIETKAAVKGYLGPEQLPDCLKGCDVVVIPAGVPRKPGMTRDDLFNTNATIVATLTAACAQHCPEAMICVIANPVNSTIPITAEVFKKHGVYNPNKIFGVTTLDIVRANTFVAELKGLDPARVNVPVIGGHAGKTIIPLISQCTPKVDFPQDQLTALTGRIQEAGTEVVKAKAGAGSATLSMAYAGARFVFSLVDAMNGKEGVVECSFVKSQETECTYFSTPLLLGKKGIEKNLGIGKVSSFEEKMISDAIPELKASIKKGEDFVKTLK
